This is one part of the list.
Assays:
Assay in all cases: log2 fold change, soluble protein after heating vs DMSO (PISA); higher = thermal stabilisation; K562 cells, 10 uM, 30 min; active = over 0.2 and 3.5 SD of the protein, either way, in both replicates (recomputed)
[1] = compound: CS(=O)(=O)c1ccc(-c2cnc(N)c(C(=O)Nc3ccccc3)n2)cc1
Method in brief: (§1)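 Aliquots of K562 cells (2×10^6 cells/mL) treated with 10 μM compound for 30 min were heated for 3 min over 48°C-58°C. After pooling and extraction in PBS with 0.5% NP-40 at 4°C, soluble protein from a 21,000xg, 90 min spin was quantified by TMTpro 16plex LC-MS/MS with channel sums equalised. Thermal stability is expressed against control samples, from duplicates, as a log2 fold change.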

Sequences of proteins named here, by UniProt entry; tags and fusion partners are left off. A change or cut given only in a name is not applied to a line headed by its entry.
UniProt P49281: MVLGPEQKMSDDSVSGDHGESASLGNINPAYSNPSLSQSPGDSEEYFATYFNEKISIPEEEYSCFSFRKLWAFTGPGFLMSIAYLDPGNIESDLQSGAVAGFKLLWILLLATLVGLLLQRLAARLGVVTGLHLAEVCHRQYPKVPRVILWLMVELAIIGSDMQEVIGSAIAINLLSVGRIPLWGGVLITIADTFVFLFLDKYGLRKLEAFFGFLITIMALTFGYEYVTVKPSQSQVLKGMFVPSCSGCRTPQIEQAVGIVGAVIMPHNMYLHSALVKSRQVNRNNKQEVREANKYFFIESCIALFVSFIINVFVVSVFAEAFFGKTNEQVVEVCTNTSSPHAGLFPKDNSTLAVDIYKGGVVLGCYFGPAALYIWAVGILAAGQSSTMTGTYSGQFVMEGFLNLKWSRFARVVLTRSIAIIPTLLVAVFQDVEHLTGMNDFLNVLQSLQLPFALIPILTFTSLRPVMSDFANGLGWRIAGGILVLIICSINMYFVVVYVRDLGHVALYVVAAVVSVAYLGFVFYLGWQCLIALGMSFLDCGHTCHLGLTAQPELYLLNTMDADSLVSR
UniProt P53794: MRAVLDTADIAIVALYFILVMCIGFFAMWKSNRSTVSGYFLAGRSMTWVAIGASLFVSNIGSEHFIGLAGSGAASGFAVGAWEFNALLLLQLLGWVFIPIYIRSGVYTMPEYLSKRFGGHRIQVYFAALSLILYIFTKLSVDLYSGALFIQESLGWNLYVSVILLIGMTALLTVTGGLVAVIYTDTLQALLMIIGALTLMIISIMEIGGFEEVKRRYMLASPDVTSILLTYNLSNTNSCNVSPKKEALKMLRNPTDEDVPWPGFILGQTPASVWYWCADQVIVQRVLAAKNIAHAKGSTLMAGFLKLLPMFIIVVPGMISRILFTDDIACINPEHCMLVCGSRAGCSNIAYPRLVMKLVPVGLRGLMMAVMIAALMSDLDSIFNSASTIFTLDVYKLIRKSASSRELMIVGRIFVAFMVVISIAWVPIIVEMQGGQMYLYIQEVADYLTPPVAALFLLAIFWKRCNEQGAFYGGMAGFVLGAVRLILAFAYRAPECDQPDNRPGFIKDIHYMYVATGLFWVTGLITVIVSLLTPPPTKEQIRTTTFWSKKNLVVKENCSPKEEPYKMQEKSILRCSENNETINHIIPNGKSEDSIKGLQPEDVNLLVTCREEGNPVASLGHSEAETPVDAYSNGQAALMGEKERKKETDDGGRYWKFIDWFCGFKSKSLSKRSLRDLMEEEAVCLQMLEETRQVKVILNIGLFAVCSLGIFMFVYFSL
UniProt Q92504: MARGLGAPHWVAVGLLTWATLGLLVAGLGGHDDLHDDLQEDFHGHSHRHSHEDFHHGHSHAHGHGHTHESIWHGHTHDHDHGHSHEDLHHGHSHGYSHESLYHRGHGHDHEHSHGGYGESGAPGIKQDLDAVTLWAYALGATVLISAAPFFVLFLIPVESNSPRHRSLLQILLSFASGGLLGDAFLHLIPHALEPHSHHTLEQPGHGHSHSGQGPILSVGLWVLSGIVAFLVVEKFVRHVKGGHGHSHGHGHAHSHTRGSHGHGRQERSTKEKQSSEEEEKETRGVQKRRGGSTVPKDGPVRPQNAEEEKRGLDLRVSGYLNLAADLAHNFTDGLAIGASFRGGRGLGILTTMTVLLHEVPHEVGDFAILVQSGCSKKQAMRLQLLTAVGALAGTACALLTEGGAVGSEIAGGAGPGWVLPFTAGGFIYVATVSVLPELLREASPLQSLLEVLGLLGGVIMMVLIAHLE
UniProt P16260: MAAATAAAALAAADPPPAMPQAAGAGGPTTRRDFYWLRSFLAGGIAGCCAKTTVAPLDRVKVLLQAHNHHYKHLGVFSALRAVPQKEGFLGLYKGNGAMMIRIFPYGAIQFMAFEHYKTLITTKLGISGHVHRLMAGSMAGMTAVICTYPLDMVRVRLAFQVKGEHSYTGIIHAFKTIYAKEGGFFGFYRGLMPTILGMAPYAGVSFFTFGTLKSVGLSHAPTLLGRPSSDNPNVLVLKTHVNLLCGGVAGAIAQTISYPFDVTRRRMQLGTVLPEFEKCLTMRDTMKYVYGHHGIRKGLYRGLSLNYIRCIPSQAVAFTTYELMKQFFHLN
UniProt Q13433: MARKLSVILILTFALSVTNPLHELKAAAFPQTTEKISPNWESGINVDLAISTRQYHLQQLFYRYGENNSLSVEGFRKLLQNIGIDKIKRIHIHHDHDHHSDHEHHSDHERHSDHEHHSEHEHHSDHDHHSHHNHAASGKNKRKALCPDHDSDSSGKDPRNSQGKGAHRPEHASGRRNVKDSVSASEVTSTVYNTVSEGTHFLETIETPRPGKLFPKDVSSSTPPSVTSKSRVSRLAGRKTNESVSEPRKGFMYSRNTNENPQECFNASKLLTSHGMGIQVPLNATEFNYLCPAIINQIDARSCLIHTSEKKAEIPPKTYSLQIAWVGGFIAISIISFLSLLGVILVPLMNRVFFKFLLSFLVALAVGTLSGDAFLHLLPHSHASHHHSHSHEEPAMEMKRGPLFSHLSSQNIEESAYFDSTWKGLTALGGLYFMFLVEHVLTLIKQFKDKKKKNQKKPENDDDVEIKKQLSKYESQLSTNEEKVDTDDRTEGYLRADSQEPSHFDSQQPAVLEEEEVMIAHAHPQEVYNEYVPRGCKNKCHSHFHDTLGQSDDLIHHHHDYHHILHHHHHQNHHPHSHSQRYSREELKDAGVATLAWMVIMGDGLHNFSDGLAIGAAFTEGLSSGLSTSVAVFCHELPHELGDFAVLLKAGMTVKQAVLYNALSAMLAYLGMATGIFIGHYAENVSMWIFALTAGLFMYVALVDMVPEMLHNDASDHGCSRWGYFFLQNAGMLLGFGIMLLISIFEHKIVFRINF
UniProt P43007: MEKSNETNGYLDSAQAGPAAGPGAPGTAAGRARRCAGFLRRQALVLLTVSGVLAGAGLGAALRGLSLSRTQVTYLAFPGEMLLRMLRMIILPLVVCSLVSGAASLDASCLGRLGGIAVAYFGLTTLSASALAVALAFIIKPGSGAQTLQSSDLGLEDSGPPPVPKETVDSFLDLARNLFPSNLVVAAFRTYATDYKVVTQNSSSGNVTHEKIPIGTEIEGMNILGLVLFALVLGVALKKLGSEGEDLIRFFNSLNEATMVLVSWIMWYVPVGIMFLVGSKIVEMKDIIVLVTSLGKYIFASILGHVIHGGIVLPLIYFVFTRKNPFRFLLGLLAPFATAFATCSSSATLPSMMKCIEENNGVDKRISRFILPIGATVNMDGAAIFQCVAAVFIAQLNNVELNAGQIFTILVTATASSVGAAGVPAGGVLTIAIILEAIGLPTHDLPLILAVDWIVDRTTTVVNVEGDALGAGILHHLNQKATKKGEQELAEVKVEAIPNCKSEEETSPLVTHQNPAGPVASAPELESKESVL
UniProt P05141: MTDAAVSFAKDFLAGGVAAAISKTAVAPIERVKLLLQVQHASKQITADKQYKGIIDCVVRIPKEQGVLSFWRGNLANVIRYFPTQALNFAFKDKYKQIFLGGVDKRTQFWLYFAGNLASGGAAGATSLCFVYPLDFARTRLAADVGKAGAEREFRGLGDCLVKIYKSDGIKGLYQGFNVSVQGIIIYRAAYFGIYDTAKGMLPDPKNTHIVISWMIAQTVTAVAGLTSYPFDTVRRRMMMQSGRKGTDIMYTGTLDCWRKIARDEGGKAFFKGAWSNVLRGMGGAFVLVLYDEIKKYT
UniProt Q9H1N7: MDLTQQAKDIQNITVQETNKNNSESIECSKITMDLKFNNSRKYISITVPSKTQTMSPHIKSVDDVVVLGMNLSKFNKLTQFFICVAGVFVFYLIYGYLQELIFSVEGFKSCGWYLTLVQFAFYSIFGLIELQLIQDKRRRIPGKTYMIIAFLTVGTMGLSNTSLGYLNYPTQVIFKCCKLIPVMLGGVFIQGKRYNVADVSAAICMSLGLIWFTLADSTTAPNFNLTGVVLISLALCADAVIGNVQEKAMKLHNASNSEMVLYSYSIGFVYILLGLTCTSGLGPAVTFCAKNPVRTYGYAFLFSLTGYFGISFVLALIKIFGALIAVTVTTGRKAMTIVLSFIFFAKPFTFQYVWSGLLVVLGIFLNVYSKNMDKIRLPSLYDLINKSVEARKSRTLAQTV
UniProt Q9UJS0: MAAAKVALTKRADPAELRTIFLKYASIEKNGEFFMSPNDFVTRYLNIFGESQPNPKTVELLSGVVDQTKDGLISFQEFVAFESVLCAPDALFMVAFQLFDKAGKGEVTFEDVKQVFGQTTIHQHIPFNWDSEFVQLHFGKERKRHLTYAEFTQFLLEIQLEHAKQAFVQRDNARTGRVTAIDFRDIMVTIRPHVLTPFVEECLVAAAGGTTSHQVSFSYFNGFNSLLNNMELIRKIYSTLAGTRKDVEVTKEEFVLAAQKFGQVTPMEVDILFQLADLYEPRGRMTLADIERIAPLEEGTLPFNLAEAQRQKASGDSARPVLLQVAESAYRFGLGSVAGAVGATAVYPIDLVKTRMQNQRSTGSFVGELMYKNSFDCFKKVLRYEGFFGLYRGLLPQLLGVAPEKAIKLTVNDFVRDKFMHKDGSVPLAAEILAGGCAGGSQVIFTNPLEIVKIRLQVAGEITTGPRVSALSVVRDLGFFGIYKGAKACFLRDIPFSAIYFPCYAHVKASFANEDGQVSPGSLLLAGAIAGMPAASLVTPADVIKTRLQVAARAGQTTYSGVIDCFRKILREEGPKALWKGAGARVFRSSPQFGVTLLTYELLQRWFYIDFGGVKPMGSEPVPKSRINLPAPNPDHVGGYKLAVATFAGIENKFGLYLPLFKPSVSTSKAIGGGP
UniProt P78382: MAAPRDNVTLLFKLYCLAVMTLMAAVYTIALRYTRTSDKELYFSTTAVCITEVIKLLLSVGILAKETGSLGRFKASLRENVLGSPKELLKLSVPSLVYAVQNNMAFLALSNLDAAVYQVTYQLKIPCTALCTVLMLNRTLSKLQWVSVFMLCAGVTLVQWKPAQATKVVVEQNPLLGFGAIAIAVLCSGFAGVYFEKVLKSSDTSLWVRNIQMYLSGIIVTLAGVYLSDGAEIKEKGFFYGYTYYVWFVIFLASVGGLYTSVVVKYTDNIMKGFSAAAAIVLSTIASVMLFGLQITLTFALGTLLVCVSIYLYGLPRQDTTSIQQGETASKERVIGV
UniProt Q9UGH3: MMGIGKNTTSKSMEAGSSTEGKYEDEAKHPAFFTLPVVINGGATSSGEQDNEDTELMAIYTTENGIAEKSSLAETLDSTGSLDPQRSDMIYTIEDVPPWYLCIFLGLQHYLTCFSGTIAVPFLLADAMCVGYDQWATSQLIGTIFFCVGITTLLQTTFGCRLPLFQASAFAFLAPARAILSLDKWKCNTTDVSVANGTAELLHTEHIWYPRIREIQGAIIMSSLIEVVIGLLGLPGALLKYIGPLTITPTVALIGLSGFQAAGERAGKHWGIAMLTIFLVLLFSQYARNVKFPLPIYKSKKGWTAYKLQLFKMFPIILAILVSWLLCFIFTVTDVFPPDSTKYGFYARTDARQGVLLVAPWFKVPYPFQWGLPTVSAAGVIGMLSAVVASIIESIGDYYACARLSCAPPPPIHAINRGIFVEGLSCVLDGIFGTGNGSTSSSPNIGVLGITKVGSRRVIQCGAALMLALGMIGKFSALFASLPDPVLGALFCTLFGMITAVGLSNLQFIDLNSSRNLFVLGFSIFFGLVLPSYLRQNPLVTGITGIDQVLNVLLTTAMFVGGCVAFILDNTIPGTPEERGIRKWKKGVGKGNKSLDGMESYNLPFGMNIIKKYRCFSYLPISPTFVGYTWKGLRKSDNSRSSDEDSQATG
UniProt P48067: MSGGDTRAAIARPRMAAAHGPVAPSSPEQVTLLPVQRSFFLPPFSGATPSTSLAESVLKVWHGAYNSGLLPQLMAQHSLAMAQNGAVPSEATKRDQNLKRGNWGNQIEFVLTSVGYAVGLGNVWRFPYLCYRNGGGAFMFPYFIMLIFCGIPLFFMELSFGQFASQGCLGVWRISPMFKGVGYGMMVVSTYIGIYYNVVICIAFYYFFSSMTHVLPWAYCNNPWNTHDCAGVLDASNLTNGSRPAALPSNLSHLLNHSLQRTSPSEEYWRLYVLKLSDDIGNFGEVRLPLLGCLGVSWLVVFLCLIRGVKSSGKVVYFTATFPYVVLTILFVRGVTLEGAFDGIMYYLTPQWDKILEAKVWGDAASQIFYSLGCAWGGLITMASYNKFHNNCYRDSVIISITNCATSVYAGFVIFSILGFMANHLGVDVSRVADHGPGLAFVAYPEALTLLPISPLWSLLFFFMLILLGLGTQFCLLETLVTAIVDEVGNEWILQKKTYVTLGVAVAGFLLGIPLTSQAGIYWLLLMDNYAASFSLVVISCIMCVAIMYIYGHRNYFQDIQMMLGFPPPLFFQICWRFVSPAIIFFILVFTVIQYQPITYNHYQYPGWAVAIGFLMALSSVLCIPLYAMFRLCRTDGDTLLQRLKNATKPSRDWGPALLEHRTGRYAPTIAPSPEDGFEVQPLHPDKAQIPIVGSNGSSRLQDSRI

crizotinib = compound: C[C@@H](Oc1cc(-c2cnn(C3CCNCC3)c2)cnc1N)c1c(Cl)ccc(F)c1Cl [crizotinib]
Method in brief: as §1

[2] = compound: C[C@@H]1COCCN1C2=NC(=NC(=C2)C3(CC3)S(=O)(=O)C)C4=C5C=CNC5=CC=C4
Method in brief: as §1

[3] = compound: C[C@H](C1=CC=C(C=C1)C(=O)NC2=C3C=CNC3=NC=C2)N
Method in brief: as §1

duvelisib = compound: C[C@H](Nc1ncnc2nc[nH]c12)c1cc2cccc(Cl)c2c(=O)n1-c1ccccc1 [duvelisib]
Method in brief: as §1

tozasertib = compound: Cc1cc(Nc2cc(N3CCN(C)CC3)nc(Sc3ccc(NC(=O)C4CC4)cc3)n2)n[nH]1 [tozasertib]
Method in brief: as §1

[4] = compound: Cc1cc(SCc2sc(-c3ccc(C(F)(F)F)cc3)nc2C)ccc1OCC(=O)O
Method in brief: as §1

doramapimod = compound: Cc1ccc(-n2nc(C(C)(C)C)cc2NC(=O)Nc2ccc(OCCN3CCOCC3)c3ccccc23)cc1 [doramapimod]
Method in brief: as §1

ispinesib = compound: Cc1ccc(C(=O)N(CCCN)[C@@H](c2nc3cc(Cl)ccc3c(=O)n2Cc2ccccc2)C(C)C)cc1 [ispinesib]
Method in brief: as §1

bafetinib = compound: Cc1ccc(NC(=O)c2ccc(CN3CC[C@H](N(C)C)C3)c(C(F)(F)F)c2)cc1Nc1nccc(-c2cncnc2)n1 [bafetinib]
Method in brief: as §1

nilotinib = compound: Cc1cn(-c2cc(NC(=O)c3ccc(C)c(Nc4nccc(-c5cccnc5)n4)c3)cc(C(F)(F)F)c2)cn1 [nilotinib]
Method in brief: as §1

[5] = compound: Cc1nc(Nc2n[nH]c3c2CN(C(=O)N[C@H](CN(C)C)c2ccccc2)C3(C)C)c2sccc2n1
Method in brief: as §1

dasatinib = compound: Cc1nc(Nc2ncc(C(=O)Nc3c(C)cccc3Cl)s2)cc(N2CCN(CCO)CC2)n1 [dasatinib]
Method in brief: as §1

[6] = compound: Cc1ncc(-c2ccnc(Nc3ccc(S(C)(=O)=O)cc3)n2)n1C(C)C
Method in brief: as §1

[7] = compound: Cn1cc(-c2ccc3c(c2)CCN3C(=O)Cc2cccc(C(F)(F)F)c2)c2c(N)ncnc21
Method in brief: as §1

[8] = compound: Cn1cc(-c2ccc3nnc(C(F)(F)c4ccc5ncccc5c4)n3n2)cn1
Method in brief: as §1

tipifarnib = compound: Cn1cncc1[C@@](N)(c1ccc(Cl)cc1)c1ccc2c(c1)c(-c1cccc(Cl)c1)cc(=O)n2C [tipifarnib]
Method in brief: as §1

mubritinib = compound: FC(F)(F)c1ccc(/C=C/c2nc(COc3ccc(CCCCn4ccnn4)cc3)co2)cc1 [mubritinib]
Method in brief: as §1

gandotinib = compound: Cc1cc(Nc2cc(CN3CCOCC3)c3nc(C)c(Cc4ccc(Cl)cc4F)n3n2)n[nH]1 [gandotinib]
Method in brief: as §1

[9] = compound: Cc1cccc(CC(=O)N2CCc3c2ccc(-c2cn(C)c4ncnc(N)c24)c3F)n1
Method in brief: as §1

Measured: log2 fold change

SLC11A2 isoform 3 (UniProt P49281)
inactive: [1] 0.106 | crizotinib -0.149 | [2] -0.002 | [3] -0.114 | duvelisib 0.124 | tozasertib -0.024 | [4] -0.192 | doramapimod 0.052 | ispinesib -0.04 | bafetinib -0.098 | nilotinib 0.021 | [5] 0 | dasatinib -0.039 | [6] -0.041 | [7] 0.134 | [8] -0.097 | tipifarnib 0.032 | mubritinib -0.039

SLC5A3 (UniProt P53794)
inactive: [1] 0.051 | crizotinib 0.109 | [2] 0.086 | [3] -0.133 | duvelisib 0.05 | gandotinib 0.001 | tozasertib -0.041 | [4] -0.054 | doramapimod 0.002 | ispinesib 0.106 | bafetinib 0.039 | [9] -0.02 | nilotinib 0.07 | [5] 0.014 | dasatinib 0.057 | [6] -0.02 | [7] 0.04 | [8] -0.083 | tipifarnib 0.026 | mubritinib 0.042

SLC39A7 (UniProt Q92504)
inactive: [1] 0.005 | crizotinib 0.011 | [2] 0.041 | [3] 0.014 | duvelisib 0.03 | gandotinib -0.074 | tozasertib -0.007 | [4] -0.128 | doramapimod -0.018 | ispinesib -0.153 | bafetinib -0.067 | [9] -0.024 | nilotinib 0.047 | [5] -0.009 | dasatinib 0.046 | [6] -0.015 | [7] -0.08 | [8] -0.026 | tipifarnib 0.029 | mubritinib 0.013

SLC25A16 (UniProt P16260)
inactive: [1] 0.075 | crizotinib 0.062 | [2] 0.19 | [3] 0.043 | duvelisib 0.179 | gandotinib -0.219 | tozasertib -0.057 | [4] -0.03 | doramapimod -0.026 | ispinesib 0.005 | bafetinib 0.04 | [9] -0.083 | nilotinib 0.095 | [5] -0.039 | dasatinib -0.012 | [6] -0.006 | [7] -0.101 | [8] -0.074 | tipifarnib 0.035 | mubritinib -0.058

SLC39A6 (UniProt Q13433)
inactive: [1] 0.024 | crizotinib 0.176 | [2] 0.139 | [3] 0.003 | duvelisib 0.122 | gandotinib -0.062 | tozasertib -0.028 | [4] -0.005 | doramapimod 0.055 | ispinesib 0.097 | bafetinib 0.044 | [9] 0.146 | nilotinib 0.115 | [5] -0.01 | dasatinib -0.041 | [6] 0.013 | [7] 0.134 | [8] 0.001 | tipifarnib 0.024 | mubritinib 0.095

SLC30A6 isoform 2 (UniProt Q6NXT4)
inactive: [1] 0.009 | crizotinib 0.09 | [2] -0.088 | [3] 0.133 | duvelisib 0.069 | gandotinib -0.294 | tozasertib -0.036 | [4] 0.046 | doramapimod -0.052 | ispinesib -0.102 | bafetinib -0.119 | [9] -0.038 | nilotinib -0.091 | [5] 0.05 | dasatinib 0.005 | [6] -0.023 | [7] 0.015 | [8] -0.014 | tipifarnib -0.015 | mubritinib 0.026

SLC6A8 (UniProt P48029)
inactive: [1] 0.085 | crizotinib 0.06 | [2] 0.149 | [3] -0.06 | duvelisib 0.03 | gandotinib -0.147 | tozasertib 0.017 | [4] -0.016 | doramapimod -0.062 | ispinesib 0.049 | bafetinib 0.032 | [9] 0.079 | nilotinib 0.007 | [5] 0.073 | dasatinib 0.08 | [6] -0.008 | [7] 0.092 | [8] 0.043 | tipifarnib 0 | mubritinib -0.055

SLC39A14 (UniProt Q15043)
inactive: [1] 0.047 | crizotinib 0.014 | [2] -0.064 | [3] -0.024 | duvelisib 0.058 | gandotinib 0.024 | tozasertib -0.064 | [4] -0.037 | doramapimod -0.016 | ispinesib -0.045 | bafetinib -0.036 | [9] -0.046 | nilotinib 0.033 | [5] -0.001 | dasatinib 0.239 | [6] 0.011 | [7] 0.061 | [8] -0.001 | tipifarnib 0.027 | mubritinib 0.043

SLC1A4 (UniProt P43007)
inactive: [1] 0.011 | crizotinib 0.106 | [2] 0.061 | [3] -0.202 | duvelisib 0.063 | gandotinib -0.002 | tozasertib -0.055 | [4] -0.105 | doramapimod -0.012 | ispinesib 0.128 | bafetinib -0.01 | [9] -0.053 | nilotinib 0.029 | [5] 0.022 | dasatinib 0.067 | [6] -0.015 | [7] 0.099 | [8] -0.054 | tipifarnib -0.001 | mubritinib 0.07

SLC12A2 (UniProt P55011)
inactive: [1] -0.025 | crizotinib 0.045 | [2] 0.015 | [3] -0.082 | duvelisib 0.037 | gandotinib -0.043 | tozasertib -0.017 | [4] -0.028 | doramapimod -0.004 | ispinesib 0.076 | bafetinib -0.004 | [9] 0.046 | nilotinib 0.049 | [5] -0.01 | dasatinib 0.013 | [6] 0.041 | [7] 0.078 | [8] -0.008 | tipifarnib 0.028 | mubritinib 0.034

SLC25A5 (UniProt P05141)
inactive: [1] -0.009 | crizotinib 0.183 | [2] 0.011 | [3] -0.191 | duvelisib 0.005 | gandotinib -0.055 | tozasertib 0.074 | [4] -0.014 | doramapimod -0.023 | ispinesib 0.128 | bafetinib -0.003 | [9] 0.017 | nilotinib 0.05 | [5] 0.006 | dasatinib 0.015 | [6] 0.027 | [7] 0.153 | [8] -0.046 | tipifarnib 0 | mubritinib -0.006

SLC35B3 (UniProt Q9H1N7)
inactive: [1] 0.071 | crizotinib -0.011 | [2] 0.164 | [3] -0.047 | duvelisib 0.069 | tozasertib 0 | [4] -0.096 | doramapimod 0 | ispinesib -0.019 | bafetinib -0.007 | nilotinib 0.047 | [5] -0.083 | dasatinib 0.034 | [6] -0.099 | [7] 0.038 | [8] -0.044 | mubritinib -0.036

SLC25A13 isoform 2 (UniProt Q9UJS0)
inactive: [1] 0.018 | crizotinib 0.031 | [2] 0.014 | [3] -0.071 | duvelisib -0.019 | gandotinib -0.032 | tozasertib -0.033 | [4] -0.003 | doramapimod 0.007 | ispinesib 0.038 | bafetinib -0.047 | [9] -0.023 | nilotinib -0.023 | [5] 0.019 | dasatinib 0.007 | [6] -0.006 | [7] 0.001 | [8] -0.018 | tipifarnib 0.036 | mubritinib 0.004

SLC35A1 (UniProt P78382)
inactive: [1] -0.017 | crizotinib 0.056 | [2] 0.044 | [3] -0.196 | [4] 0.074 | doramapimod -0.039 | ispinesib 0.04 | bafetinib 0.005 | nilotinib -0.009 | [5] -0.055 | dasatinib 0.036 | [6] -0.02 | [7] 0.03 | [8] 0.067 | tipifarnib -0.022 | mubritinib 0.049

2 records drawn at random from the list so far:
SLC25A13 isoform 2 (UniProt Q9UJS0)
inactive: [1] 0.018 | crizotinib 0.031 | [2] 0.014 | [3] -0.071 | duvelisib -0.019 | gandotinib -0.032 | tozasertib -0.033 | [4] -0.003 | doramapimod 0.007 | ispinesib 0.038 | bafetinib -0.047 | [9] -0.023 | nilotinib -0.023 | [5] 0.019 | dasatinib 0.007 | [6] -0.006 | [7] 0.001 | [8] -0.018 | tipifarnib 0.036 | mubritinib 0.004

SLC35B3 (UniProt Q9H1N7)
inactive: [1] 0.071 | crizotinib -0.011 | [2] 0.164 | [3] -0.047 | duvelisib 0.069 | tozasertib 0 | [4] -0.096 | doramapimod 0 | ispinesib -0.019 | bafetinib -0.007 | nilotinib 0.047 | [5] -0.083 | dasatinib 0.034 | [6] -0.099 | [7] 0.038 | [8] -0.044 | mubritinib -0.036

(cont.)

SLC23A2 (UniProt Q9UGH3)
inactive: [1] 0.058 | crizotinib -0.039 | tozasertib -0.285 | doramapimod 0.008 | bafetinib -0.095 | nilotinib -0.127 | [5] 0.09 | [6] 0.102

SLC6A9 (UniProt P48067)
inactive: [1] -0.071 | crizotinib 0.051 | [3] 0.022 | duvelisib 0.09 | gandotinib -0.007 | tozasertib -0.052 | [4] -0.062 | doramapimod -0.028 | ispinesib 0.065 | bafetinib -0.097 | [9] 0.015 | nilotinib 0.084 | [5] 0.012 | dasatinib -0.041 | [6] -0.008 | [7] 0.089 | [8] -0.021 | tipifarnib 0.038 | mubritinib 0.042

SLC35E2B (UniProt P0CK96)
inactive: [1] -0.046 | crizotinib -0.127 | [3] 0.312 | doramapimod -0.079 | ispinesib -0.227 | bafetinib -0.057 | [7] -0.066 | [8] 0.036 | tipifarnib 0.104 | mubritinib 0.055

Source: the supplement of paper PMC10849652
